# Assay results published in patent EP2292225A1 (priority 1997, dated 1998).
# At least one compound was matched to its structure with a doubt left.
# Test system: Pig femoral arteries
# Test: Biological stenting of balloon traumatized femoral arteries (luminal area morphometry)
# Assay type: in vivo
# Conditions: 0.01 µg/ml (subthreshold dose), 1 atm for 3 minutes, 3 weeks later
# Protocol: Pig femoral arteries were traumatized as described in Example 7, and then treated with cytochalasin B. About 1.5 to about 2 ml of cytochalasin B at 0.1 µg/ml was infused into portions of the artery that had been separated from other portions by ligatures. The artery was then pressurized for 3 minutes and the fluid aspirated. Approximately 8 to about 30 lambda of the solution is retained in the interstitial space surrounding the cells in the tunica media. Ten femoral arteries (two arteries obtained from each of the 5 pigs that were treated according to the single dose protocol described in Example 7) were then evaluated histologically at 4 days or 3 weeks after cytochalasin B adminstration. The maximal luminal area of each artery was measured and calculated from digitized microscopic images by a BQ System IV computerized morphometric analysis system (R & M Biometrics, Inc., Nashville, TN). […]
# A cytochalasin B dose response study was then conducted on 10 pigs, following the experimental protocol described in Example 7. […] The agent was delivered by intraluminal catheter at 1 atm pressure for 3 minutes, and the arteries were evaluated 3 weeks later by the morphometric analysis system described above. […]
# Balloon traumatized swine femoral arteries from control and treated (0.1 µg/ml cytochalasin B) were evaluated at 1, 4, 7, 14, or 21 days after intervention. […]
structure (smiles),measurement,value
C=C1[C@@H](C)[C@H]2[C@H](Cc3ccccc3)NC(=O)[C@]23OC(=O)/C=C/[C@H](O)CCC[C@@H](C)C/C=C/[C@H]3[C@@H]1O [cytochalasin B],percent change in treated vs. normal luminal area,± 20%
